Common to all, as to settings: K562; 2-18 h
Test [1] has as its target STK38 (UniProt Q15208). Description: kinase-Nluc reporter destabilization hit call (1 = scored as downregulated) (binary); higher = compound decreases kinase abundance.
Test [2] concerns the target SYK (UniProt P43405). The description is as above.
Test [3] concerns the target TEC (UniProt P42680). Described as above.
Test [4] addresses TYK2 (UniProt P29597). The description is as above.
The target in test [5] is ULK3 (UniProt Q6PHR2). Described as above.
Test [6] deals with YES1 (UniProt P07947). Described as above.
Test [7] has as its target ZAK (UniProt Q9NYL2). The description is as above.
Test [8] has as its target ZAP70 (UniProt P43403). The description is as above.
In test [9] the target is ABL1 (UniProt P00519). Description: number of time points (of 5) at which kinase-Nluc abundance scored as decreased, DMSO-normalised (count); higher = more persistent destabilization.
The target of test [10] is AKT1 (UniProt P31749). Described as above.

Protein sequences, listed by entry. Tags and fused reporters are not part of them. Lines headed by an entry give the natural chain unless they say otherwise; changes in a name come on top.
UniProt Q15208: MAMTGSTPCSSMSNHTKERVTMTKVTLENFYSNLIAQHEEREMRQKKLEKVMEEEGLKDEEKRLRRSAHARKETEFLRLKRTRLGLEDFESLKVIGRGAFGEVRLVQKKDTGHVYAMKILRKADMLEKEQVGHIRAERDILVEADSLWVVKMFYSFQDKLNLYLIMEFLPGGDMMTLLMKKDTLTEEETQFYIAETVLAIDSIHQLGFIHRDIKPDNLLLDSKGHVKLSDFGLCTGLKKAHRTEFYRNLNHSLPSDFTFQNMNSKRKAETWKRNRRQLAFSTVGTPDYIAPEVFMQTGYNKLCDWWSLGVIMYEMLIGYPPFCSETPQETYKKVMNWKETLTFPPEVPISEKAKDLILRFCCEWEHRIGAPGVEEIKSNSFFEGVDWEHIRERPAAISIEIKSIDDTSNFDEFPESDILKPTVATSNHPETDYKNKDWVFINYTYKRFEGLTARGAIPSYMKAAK
UniProt P42680: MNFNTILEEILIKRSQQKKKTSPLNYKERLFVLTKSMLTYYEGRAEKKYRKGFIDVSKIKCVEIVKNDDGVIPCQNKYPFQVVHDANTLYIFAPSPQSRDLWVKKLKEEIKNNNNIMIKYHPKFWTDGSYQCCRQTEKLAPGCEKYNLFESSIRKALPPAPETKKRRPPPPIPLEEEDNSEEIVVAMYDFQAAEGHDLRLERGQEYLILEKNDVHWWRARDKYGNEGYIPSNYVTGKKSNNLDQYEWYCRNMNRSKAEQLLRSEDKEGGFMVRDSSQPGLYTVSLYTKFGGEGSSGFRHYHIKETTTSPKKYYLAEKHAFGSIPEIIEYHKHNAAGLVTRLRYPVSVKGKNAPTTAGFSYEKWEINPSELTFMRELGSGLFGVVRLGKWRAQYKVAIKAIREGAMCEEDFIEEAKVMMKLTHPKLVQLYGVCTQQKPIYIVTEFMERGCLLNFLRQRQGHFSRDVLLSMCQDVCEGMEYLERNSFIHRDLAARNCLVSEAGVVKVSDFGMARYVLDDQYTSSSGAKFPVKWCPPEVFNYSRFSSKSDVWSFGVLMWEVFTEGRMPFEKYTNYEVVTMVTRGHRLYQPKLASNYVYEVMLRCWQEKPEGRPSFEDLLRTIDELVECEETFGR
UniProt P29597: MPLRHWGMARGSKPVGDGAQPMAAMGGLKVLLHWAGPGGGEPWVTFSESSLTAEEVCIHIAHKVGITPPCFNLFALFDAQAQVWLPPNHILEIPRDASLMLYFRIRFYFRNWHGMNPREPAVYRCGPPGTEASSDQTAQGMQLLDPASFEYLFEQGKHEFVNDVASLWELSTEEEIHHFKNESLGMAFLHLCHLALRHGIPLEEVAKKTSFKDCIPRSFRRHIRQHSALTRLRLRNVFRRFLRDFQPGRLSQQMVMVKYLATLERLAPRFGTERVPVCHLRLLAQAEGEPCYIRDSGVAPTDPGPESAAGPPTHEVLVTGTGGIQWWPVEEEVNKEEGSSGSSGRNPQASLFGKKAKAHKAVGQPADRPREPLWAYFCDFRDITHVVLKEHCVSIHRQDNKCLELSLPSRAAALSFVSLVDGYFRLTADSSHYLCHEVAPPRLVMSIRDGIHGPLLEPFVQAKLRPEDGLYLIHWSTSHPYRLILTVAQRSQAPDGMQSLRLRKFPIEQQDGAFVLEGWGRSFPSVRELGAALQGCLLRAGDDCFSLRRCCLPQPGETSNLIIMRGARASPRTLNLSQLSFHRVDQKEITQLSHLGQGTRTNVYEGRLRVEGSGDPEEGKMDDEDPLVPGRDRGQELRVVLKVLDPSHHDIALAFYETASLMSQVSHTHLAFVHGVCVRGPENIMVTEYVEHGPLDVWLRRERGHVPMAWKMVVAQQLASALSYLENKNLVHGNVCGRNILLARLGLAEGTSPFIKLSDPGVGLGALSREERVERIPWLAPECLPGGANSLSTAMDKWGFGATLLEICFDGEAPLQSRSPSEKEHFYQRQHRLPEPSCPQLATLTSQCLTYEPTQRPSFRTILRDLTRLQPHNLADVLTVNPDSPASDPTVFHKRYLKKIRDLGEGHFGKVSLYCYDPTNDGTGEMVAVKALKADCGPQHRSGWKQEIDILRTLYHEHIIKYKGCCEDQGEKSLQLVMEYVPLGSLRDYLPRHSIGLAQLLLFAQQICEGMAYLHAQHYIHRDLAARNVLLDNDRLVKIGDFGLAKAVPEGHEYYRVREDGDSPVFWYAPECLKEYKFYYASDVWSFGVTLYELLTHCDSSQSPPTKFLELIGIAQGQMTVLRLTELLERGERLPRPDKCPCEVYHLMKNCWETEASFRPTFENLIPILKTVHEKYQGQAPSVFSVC
UniProt Q6PHR2: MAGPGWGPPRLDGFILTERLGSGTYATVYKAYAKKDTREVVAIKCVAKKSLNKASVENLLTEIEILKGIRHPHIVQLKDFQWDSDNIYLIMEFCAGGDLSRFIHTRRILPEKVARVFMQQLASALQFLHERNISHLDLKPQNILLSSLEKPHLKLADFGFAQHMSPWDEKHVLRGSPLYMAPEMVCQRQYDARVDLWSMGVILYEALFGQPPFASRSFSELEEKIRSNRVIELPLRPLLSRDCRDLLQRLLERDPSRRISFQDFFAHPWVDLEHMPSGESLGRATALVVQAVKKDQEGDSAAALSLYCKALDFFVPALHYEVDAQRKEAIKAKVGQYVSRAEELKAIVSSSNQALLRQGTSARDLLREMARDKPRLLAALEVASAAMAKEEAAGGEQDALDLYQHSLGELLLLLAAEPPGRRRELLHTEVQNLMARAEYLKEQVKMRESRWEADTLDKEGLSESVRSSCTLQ
UniProt P07947, whole entry, looked up: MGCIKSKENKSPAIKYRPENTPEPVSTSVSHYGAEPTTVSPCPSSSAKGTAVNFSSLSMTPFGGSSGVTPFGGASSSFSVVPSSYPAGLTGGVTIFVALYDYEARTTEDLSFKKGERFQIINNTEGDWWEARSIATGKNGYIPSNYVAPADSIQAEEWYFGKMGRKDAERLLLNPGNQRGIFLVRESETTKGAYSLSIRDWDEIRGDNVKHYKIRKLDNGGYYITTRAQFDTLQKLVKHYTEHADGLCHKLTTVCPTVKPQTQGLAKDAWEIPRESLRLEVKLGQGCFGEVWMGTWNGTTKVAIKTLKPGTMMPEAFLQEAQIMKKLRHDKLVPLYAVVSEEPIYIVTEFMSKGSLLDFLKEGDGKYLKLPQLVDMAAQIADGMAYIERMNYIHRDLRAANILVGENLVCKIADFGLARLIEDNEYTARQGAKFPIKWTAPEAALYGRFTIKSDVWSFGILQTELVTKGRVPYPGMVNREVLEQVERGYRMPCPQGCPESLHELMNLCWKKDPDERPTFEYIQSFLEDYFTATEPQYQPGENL
UniProt P43403: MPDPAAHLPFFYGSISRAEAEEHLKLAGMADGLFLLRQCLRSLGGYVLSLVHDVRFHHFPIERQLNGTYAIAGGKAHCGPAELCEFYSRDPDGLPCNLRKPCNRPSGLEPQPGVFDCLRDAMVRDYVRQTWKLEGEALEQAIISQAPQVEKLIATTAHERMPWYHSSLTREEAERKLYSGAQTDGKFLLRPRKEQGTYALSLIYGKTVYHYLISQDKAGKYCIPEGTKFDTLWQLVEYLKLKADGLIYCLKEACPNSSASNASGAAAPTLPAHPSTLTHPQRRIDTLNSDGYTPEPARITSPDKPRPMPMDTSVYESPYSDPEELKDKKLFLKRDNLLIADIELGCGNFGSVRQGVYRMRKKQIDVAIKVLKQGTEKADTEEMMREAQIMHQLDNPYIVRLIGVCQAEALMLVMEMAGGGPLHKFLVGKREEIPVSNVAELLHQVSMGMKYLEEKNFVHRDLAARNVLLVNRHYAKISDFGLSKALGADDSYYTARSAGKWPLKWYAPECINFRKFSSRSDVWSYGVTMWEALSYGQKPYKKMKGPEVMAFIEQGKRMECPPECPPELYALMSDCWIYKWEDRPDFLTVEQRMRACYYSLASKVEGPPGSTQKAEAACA
UniProt P00519, whole entry: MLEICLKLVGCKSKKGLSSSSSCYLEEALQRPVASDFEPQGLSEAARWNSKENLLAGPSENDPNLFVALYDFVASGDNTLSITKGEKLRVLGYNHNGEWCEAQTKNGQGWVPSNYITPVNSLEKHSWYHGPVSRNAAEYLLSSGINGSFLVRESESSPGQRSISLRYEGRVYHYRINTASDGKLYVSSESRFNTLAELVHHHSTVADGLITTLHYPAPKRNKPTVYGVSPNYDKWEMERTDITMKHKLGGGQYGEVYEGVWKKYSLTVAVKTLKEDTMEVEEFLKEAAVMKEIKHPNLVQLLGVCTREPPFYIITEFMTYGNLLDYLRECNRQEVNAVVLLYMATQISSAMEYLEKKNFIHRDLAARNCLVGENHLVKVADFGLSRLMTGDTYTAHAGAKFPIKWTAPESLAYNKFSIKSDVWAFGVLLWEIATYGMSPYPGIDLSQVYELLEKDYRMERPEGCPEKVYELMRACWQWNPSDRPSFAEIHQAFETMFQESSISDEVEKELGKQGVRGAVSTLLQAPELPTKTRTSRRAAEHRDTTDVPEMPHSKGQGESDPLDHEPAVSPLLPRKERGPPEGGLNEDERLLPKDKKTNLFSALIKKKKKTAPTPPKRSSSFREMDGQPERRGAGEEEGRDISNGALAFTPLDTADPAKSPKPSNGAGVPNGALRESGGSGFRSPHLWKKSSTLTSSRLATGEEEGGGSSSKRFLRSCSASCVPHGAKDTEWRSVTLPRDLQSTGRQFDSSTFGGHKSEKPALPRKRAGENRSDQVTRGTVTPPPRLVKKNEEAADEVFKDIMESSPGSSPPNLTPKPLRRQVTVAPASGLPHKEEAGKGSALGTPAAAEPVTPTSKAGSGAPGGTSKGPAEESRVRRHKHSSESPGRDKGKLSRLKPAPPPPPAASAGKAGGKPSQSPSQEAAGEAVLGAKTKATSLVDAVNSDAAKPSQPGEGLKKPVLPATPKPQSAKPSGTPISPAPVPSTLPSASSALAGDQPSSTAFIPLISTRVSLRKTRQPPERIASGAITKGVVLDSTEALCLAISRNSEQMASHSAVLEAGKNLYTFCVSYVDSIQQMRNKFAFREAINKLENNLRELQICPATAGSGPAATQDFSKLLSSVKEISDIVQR
UniProt P31749: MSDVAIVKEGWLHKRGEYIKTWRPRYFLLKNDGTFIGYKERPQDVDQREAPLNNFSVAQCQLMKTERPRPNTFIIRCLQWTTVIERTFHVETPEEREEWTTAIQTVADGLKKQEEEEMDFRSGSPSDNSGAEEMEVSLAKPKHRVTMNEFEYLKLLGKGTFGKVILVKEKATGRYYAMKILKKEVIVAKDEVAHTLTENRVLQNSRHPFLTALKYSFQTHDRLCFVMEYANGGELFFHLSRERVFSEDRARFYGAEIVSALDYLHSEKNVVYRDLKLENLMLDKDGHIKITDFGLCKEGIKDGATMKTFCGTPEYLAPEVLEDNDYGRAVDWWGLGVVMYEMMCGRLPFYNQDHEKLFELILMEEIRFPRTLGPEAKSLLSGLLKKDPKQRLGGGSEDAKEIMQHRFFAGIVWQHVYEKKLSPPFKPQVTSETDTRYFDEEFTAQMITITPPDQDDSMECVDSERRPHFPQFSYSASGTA

Each structure is given as a SMILES string. Counter-ions that a name gives are not always drawn. This is one part of the list. The calls rarely recur for the same compound in another form.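 Kinases were expressed as nanoluciferase fusions in K562 cells and luminescence was read every 4 h between 2 and 18 h as percent of control, DMSO set to 100% and a positive control to 0%. A time point counts as decreased when the signal drops significantly (2 sigma). The hit call is the authors' own, does not follow from the count of time points alone, and its rule is not shown.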

`CC1=C(C(=O)Nc2ccc3[nH]ncc3c2)C(c2ccc(F)cc2)NC(=O)N1` (stereo not given) (10 µM): the “kinase-Nluc reporter destabilization hit call” value in test [1], in test [2], in [3], in [4], in test [5] and in [6] was inactive: 0 each time. In addition, the “kinase-Nluc reporter destabilization hit call” value in test [7] and in test [8] was inactive: 0 in each case. Besides, the “number of time points” value in test [9] and in [10] was 0 each time.
Turning to `CC[C@@H](N)CNc1ccnc(-c2cc(-c3cnn(C)c3)ccc2O)n1` (2.5 µM), the “kinase-Nluc reporter destabilization hit call” value in test [1], in [2], in [3], in test [4], in test [5] and in [6] was inactive: 0 each time. Also, the “kinase-Nluc reporter destabilization hit call” value in test [7] and in [8] was inactive: 0 throughout. Further, the “number of time points” value in [9] and in [10] was 0 in each case.
On to `O[C@H]1CC[C@H](Nc2ncc3nc(Nc4c(F)cc(F)cc4F)n([C@H]4CCOC4)c3n2)CC1` [Tanzisertib] (10 µM), for which the “kinase-Nluc reporter destabilization hit call” value in test [1], in test [2], in [3], in [4], in test [5] and in test [6] was inactive: 0 in each case. Besides, the “kinase-Nluc reporter destabilization hit call” value in test [7] and in [8] was inactive: 0 in each case. For the same compound, the “number of time points” value in [9] and in test [10] was 0 in each case.
Turning to `Cc1cccc(-c2[nH]ncc2-c2ccc3ncccc3n2)n1` (10 µM), the “kinase-Nluc reporter destabilization hit call” value in [1], in test [2], in test [3], in test [4], in test [5] and in test [6] was inactive: 0 each time. For the same compound, the “kinase-Nluc reporter destabilization hit call” value in test [7] and in [8] was inactive: 0 throughout. The “number of time points” value in test [9] and in [10] was 0 each time.
With `NCCCCCCNS(=O)(=O)c1cccc2c(Cl)cccc12` [W-7 (hydrochloride)] (10 µM), the “kinase-Nluc reporter destabilization hit call” value in test [1], in [2], in [3], in [4], in test [5] and in test [6] was inactive: 0 each time. Also, the “kinase-Nluc reporter destabilization hit call” value in test [7] and in test [8] was inactive: 0 each time. The “number of time points” value in test [9] and in [10] was 0 in each case.
With `Oc1ccccc1C(=S)N1CCCC1` (10 µM), the “kinase-Nluc reporter destabilization hit call” value in [1], in test [2], in test [3], in [4], in test [5] and in test [6] was inactive: 0 in each case. Further, the “kinase-Nluc reporter destabilization hit call” value in [7] and in test [8] was inactive: 0 in each case. The “number of time points” value in test [9] and in test [10] was 0 in each case.
As for `COc1nc(-c2cccc3c2OCCO3)ccc1Nc1ccc(CN(C)C)cc1` [RAS inhibitor Abd-7] (10 µM), the “kinase-Nluc reporter destabilization hit call” value in test [1], in [2], in [3], in [4], in test [5] and in test [6] was inactive: 0 throughout. For the same compound, the “kinase-Nluc reporter destabilization hit call” value in test [7] and in test [8] was inactive: 0 each time. Moreover, the “number of time points” value in test [9] and in [10] was 0 each time.
Turning to `CNC(=O)c1ccc(-c2cnc3cnc(-c4ccccc4)cn23)cc1` (10 µM), the “kinase-Nluc reporter destabilization hit call” value in test [1], in [2], in [3], in test [4], in [5] and in [6] was inactive: 0 each time. Besides, the “kinase-Nluc reporter destabilization hit call” value in test [7] and in test [8] was inactive: 0 throughout. The “number of time points” value in [9] and in test [10] was 0 in each case.
`CCN1/C(=C/C(C)=O)Sc2ccc(OC)cc21` (10 µM): the “kinase-Nluc reporter destabilization hit call” value in test [1], in test [2], in [3], in test [4], in test [5] and in test [6] was inactive: 0 throughout. Moreover, the “kinase-Nluc reporter destabilization hit call” value in test [7] and in test [8] was inactive: 0 in each case. For the same compound, the “number of time points” value in test [9] turned out to be 2; in test [10], 0.
For the compound `OCCN(CCO)c1ccc(C(c2ccc(Cl)cc2)c2ccc(N(CCO)CCO)cc2)cc1` (10 µM), the “kinase-Nluc reporter destabilization hit call” value in test [1], in [2], in [3], in test [4], in [5] and in [6] was inactive: 0 each time. For the same compound, the “kinase-Nluc reporter destabilization hit call” value in test [7] and in test [8] was inactive: 0 in each case. The “number of time points” value in [9] and in test [10] was 0 throughout.
In the case of `O=C1NC(=O)C(c2cn(-c3ccccc3)nc2-c2ccc(F)cc2)N1` (stereo not given) (10 µM), the “kinase-Nluc reporter destabilization hit call” value in test [1], in test [2], in test [3], in test [4], in test [5] and in test [6] was inactive: 0 in each case. Also, the “kinase-Nluc reporter destabilization hit call” value in test [7] and in [8] was inactive: 0 throughout. The “number of time points” value in [9] and in test [10] was 0 in each case.
With `COc1cc(N2CCC(O)CC2)ccc1Nc1cc(Nc2ccccc2S(=O)(=O)C(C)C)c2cc[nH]c2n1` (10 µM), the “kinase-Nluc reporter destabilization hit call” value in test [1], in test [2], in [3], in test [4], in [5] and in test [6] was inactive: 0 throughout. Moreover, the “kinase-Nluc reporter destabilization hit call” value in test [7] and in test [8] was inactive: 0 in each case. Besides, the “number of time points” value in test [9] and in test [10] was 0 each time.
Take `Cn1cc(-c2cc3c(N4CCN(c5ncc([C@@](C)(N)c6ccc(F)cc6)cn5)CC4)ncnn3c2)cn1` [Avapritinib] (2.5 µM): the “kinase-Nluc reporter destabilization hit call” value in [1], in [2], in [3], in test [4], in test [5] and in test [6] was inactive: 0 throughout. In addition, the “kinase-Nluc reporter destabilization hit call” value in [7] and in [8] was inactive: 0 in each case. Further, the “number of time points” value in [9] and in test [10] was 0 throughout.
Take `C[C@@H]1COCCN1c1cc(C2([S@](C)(=N)=O)CC2)nc(-c2cc[nH]c3nccc2-3)n1` [Ceralasertib] (2.5 µM): the “kinase-Nluc reporter destabilization hit call” value in [1], in test [2], in test [3], in [4], in test [5] and in test [6] was inactive: 0 each time. For the same compound, the “kinase-Nluc reporter destabilization hit call” value in [7] and in [8] was inactive: 0 throughout. Moreover, the “number of time points” value in [9] and in test [10] was 0 throughout.
For `Cc1cnc(Nc2ccc(N3CCN(C)CC3)cc2)nc1Nc1cccc(S(=O)(=O)NC(C)(C)C)c1` (2.5 µM), the “kinase-Nluc reporter destabilization hit call” value in [1], in test [2], in [3], in test [4], in [5] and in test [6] was inactive: 0 throughout. For the same compound, the “kinase-Nluc reporter destabilization hit call” value in [7] and in [8] was inactive: 0 each time. Besides, the “number of time points” value in [9] and in test [10] was 0 throughout.
